# According to the supplement of paper PMC12889115:
# Some of the results follow. These are raw signals, not scaled to a control.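 In the initial screen, polymyxin B was used at a concentration that permeabilizes Salmonella's outer membrane but not its inner membrane. Maximum growth was set by DMSO wells with or without polymyxin B. Since plates varied, data were ranked per plate, and compounds giving the lowest OD600 advanced as hits.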
# Tested on: Salmonella enterica serovar Typhimurium SL1344
# Test: bacterial growth OD600 after 18 h with compound and polymyxin B; higher = more bacterial growth (less inhibition)
# Details: 50 µM, Mueller-Hinton broth
SMILES,bacterial growth OD600 (polymyxin B 1 µg/mL),bacterial growth OD600 (polymyxin B 0.75 µg/mL)
COc1cc(F)ccc1CN1CCC(n2nccc2NC(=O)CC(C)C)CC1,0.935,–
CC1(C)CC(Nc2ccc(-c3nc(Cc4ccccc4)no3)cn2)CCO1 (stereo not given),0.736,–
CN(CCC1CCCCO1)C(=O)CCc1nnc(Cc2c[nH]c3ccccc23)o1 (stereo not given),0.876,–
Cn1ccnc1CNC(=O)CC(c1ccccc1)c1ccccc1F (stereo not given),–,0.797
COc1ccc(CC(=O)N2CCOc3ccc(CN4CCN(Cc5ccccn5)CC4)cc3C2)cc1,–,0.863
COc1ccc(F)c(CN2CCCC3(CCN(C(=O)C(C)(C)C)C3)C2=O)c1 (stereo not given),0.705,–
COc1cccc(CC(C2CCN(C(=O)Cc3csc(C)n3)CC2)N(C)C(=O)CC(C)C)c1 (stereo not given),–,0.792
CO[C@H]1[C@H](NC(=O)Cc2cccs2)c2ccccc2C12CCN(Cc1cccc(C)c1)CC2,–,0.74
COc1ccc(F)c(CN2CCCC3(CCN(C(=O)c4cn5ccccc5n4)C3)C2)c1 (stereo not given),–,0.844
COC(=O)c1cccc(-c2cc(Cl)c3c(c2)CC(CNC(=O)CSC)O3)c1 (stereo not given),–,0.441
O=C(CCC1CCCN(CCc2ccccc2)C1)Nc1ccccc1F (stereo not given),1.19,–
CN(CCc1ccccn1)C(=O)CCC1CCCN(C(=O)Cn2cnc3ccccc32)C1 (stereo not given),0.95,–
O=C(NCc1c(F)cccc1Cl)c1cc(CN2CCCC(O)C2)on1 (stereo not given),1.12,–
CCc1noc(C)c1C(=O)NCc1cccnc1N(C)Cc1ccccc1,0.857,–
CCOC(=O)N1CCN(Cc2ccc3c(c2)CN(C(=O)Cc2ccc4c(c2)OCO4)CCO3)CC1,–,0.865
CC1CCN(Cc2nnnn2CC(=O)NC(C)c2cnn(-c3ccccc3)c2)CC1 (stereo not given),–,0.76
COc1ccccc1C1CN(Cc2c(C)n(C)n(-c3ccccc3)c2=O)Cc2ccccc2O1 (stereo not given),–,0.019
O=C(Cn1cccn1)NCc1cccnc1Oc1cccc(C(F)(F)F)c1,–,0.653
COc1ccc(CC2(CCC(=O)N(C)Cc3nc4cc(C)c(C)cc4[nH]3)CCC(=O)N2)c(F)c1 (stereo not given),–,0.85
CCOc1cccc(CNC(C)c2cnn(-c3ccccc3)c2C)c1 (stereo not given),–,0.836

# Whole records as entered above.
# COc1cc(F)ccc1CN1CCC(n2nccc2NC(=O)CC(C)C)CC1 is listed as bacterial growth OD600 (polymyxin B 1 µg/mL): 0.935
# COc1cccc(CC(C2CCN(C(=O)Cc3csc(C)n3)CC2)N(C)C(=O)CC(C)C)c1 (stereo not given) is listed as bacterial growth OD600 (polymyxin B 0.75 µg/mL): 0.792
